For at least one compound, name, drawing or mass did not settle the structure.
System: LDL
Assay: In vitro copper-mediated LDL oxidation, conjugated diene lag time extension
Details: 10 μM incubated with rabbit plasma, isolated LDL, added Cu++; lag time ratio treated/control

For `O=C1O[C@H]([C@@H](O)CO)C(O)=C1O` [Ascorbate], the “LDL Oxd. Inhib. mean lag ratio” value was 1.00.

— patent publication US5391765A, “Cholesterol lowering/antioxidant nitroxides” (Bristol-Myers Squibb Company, priority 1993, dated 1995)
